1 molecule from article doi:10.1101/2025.11.25.690553 can be followed below.

In this experiment the target is T1, WT CTCF (UniProt P49711).
T1 sequence: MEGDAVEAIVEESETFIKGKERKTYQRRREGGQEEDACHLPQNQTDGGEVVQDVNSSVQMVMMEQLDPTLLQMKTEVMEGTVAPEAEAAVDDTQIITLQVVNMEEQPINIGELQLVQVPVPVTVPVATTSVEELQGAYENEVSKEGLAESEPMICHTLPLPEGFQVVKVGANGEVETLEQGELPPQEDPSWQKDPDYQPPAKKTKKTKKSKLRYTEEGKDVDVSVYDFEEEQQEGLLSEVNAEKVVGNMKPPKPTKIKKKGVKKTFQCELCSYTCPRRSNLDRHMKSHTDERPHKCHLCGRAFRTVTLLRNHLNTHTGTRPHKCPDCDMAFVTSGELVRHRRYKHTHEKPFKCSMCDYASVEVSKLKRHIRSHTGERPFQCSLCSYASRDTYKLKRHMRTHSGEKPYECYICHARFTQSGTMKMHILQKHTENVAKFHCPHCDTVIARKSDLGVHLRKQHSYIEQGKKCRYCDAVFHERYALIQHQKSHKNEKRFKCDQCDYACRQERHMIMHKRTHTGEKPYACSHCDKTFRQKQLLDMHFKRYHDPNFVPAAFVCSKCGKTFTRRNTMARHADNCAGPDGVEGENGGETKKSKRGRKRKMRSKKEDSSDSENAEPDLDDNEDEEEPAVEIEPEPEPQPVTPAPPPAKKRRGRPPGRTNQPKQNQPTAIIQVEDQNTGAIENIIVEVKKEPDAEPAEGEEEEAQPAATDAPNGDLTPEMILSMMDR
Put plainly: atomic force microscopy; PDS5A position imaged on a symmetric DNA substrate containing 2 CTCF consensus motifs; position as distance from the nearest CTCF binding site; both purified.

These are yes or no findings as the source states them, for the method shown. Some results given as binding are weak or reduced against the parent protein; the word gives no strength.

B1: PDS5A (protein, UniProt Q29RF7 1-1337)
chain: MDFTAQPKPATALCGVVSADGKIAYPPGVKEITDKITTDEMIKRLKMVVKTFMDMDQDSEDEKQQYLPLALHLASEFFLRNPNKDVRLLVACCLADIFRIYAPEAPYTSHDKLKDIFLFITRQLKGLEDTKSPQFNRYFYLLENLAWVKSYNICFELEDCNEIFIQLFRTLFSVINNSHNKKVQMHMLDLMSSIIMEGDGVTQELLDSILINLIPAHKNLNKQSFDLAKVLLKRTVQTIEACIANFFNQVLVLGRSSVSDLSEHVFDLIQELFAIDPHLLLSVMPQLEFKLKSNDGEERLAVVRLLAKLFGSKDSDLATQNRPLWQCFLGRFNDIHVPVRLESVKFASHCLMNHPDLAKDLTEYLKVRSHDPEEAIRHDVIVTIITAAKRDLALVNDQLLGFVRERTLDKRWRVRKEAMMGLAQLYKKYCLHGEAGKEAAEKVSWIKDKLLHIYYQNSIDDKLLVEKIFAQYLVPHNLETEERMKCLYYLYASLDPNAVKALNEMWKCQNMLRSHVRELLDLHKQPTSEANCSAMFGKLMTIAKNLPDPGKAQDFVKKFNQVLGDDEKLRSQLELLISPTCSCKQADICVREIARKLANPKQPTNPFLEMVKFLLERIAPVHIDSEAISALVKLMNKSIEGTADDEEEGVSPDTAIRSGLELLKVLSFTHPTSFHSAETYESLLQCLRMEDDKVAEAAIQIFRNTGHKIETDLPQIRSTLIPILHQKAKRGTPHQAKQAVHCIHAIFTNKEVQLAQIFEPLSRSLNADVPEQLITPLVSLGHISMLAPDQFASPMKSVVANFIVKDLLMNDRSTGEKNGKLWSPDEEVSPEVLAKVQAIKLLVRWLLGMKNNQSKSANSTLRLLSAMLVSEGDLTEQKRISKSDMSRLRLAAGSAIMKLAQEPCYHEIITPEQFQLCALVINDECYQVRQIFAQKLHKALVKLLLPLEYMAIFALCAKDPVKERRAHARQCLLKNISIRREYIKQNPMATEKLLSLLPEYVVPYMIHLLAHDPDFTRSQDVDQLRDIKECLWFMLEVLMTKNENNSHAFMKKMAENIKLTRDAQSPDESKTNEKLYTVCDVALCVINSKSALCNADSPKDPVLPMKFFTQPEKDFCNDKSYISEETRVLLLTGKPKPAGVLGAVNKPLSATGRKPYVRSTGTETGSNINVNSELNPSTGNRSREQSSEAAETGVSENEENPVRIISVTPVKNIDPVKNKEINSDQATQGNISSDRGKKRTVTAAGAENIQQKTDEKVDESGPPAPSKPRRGRRPKSESQGNATKNDDLNKPINKGRKRAAVGQESPGGLEAGNAKAPKLQDLAKKAAPAERQIDLQR
B1: the binding entry is “binds”.
